Results published in PMC11447025.
These are yes or no findings as the source states them, for the method shown. In cells and extracts the contact can be indirect. Some binding calls cover weakened binding; strength is not graded here. Where a sequence is shown, tags or fusion partners need not be part of it.

By UniProt entry, the sequences of proteins in these tests, tags left out.
UniProt P11166: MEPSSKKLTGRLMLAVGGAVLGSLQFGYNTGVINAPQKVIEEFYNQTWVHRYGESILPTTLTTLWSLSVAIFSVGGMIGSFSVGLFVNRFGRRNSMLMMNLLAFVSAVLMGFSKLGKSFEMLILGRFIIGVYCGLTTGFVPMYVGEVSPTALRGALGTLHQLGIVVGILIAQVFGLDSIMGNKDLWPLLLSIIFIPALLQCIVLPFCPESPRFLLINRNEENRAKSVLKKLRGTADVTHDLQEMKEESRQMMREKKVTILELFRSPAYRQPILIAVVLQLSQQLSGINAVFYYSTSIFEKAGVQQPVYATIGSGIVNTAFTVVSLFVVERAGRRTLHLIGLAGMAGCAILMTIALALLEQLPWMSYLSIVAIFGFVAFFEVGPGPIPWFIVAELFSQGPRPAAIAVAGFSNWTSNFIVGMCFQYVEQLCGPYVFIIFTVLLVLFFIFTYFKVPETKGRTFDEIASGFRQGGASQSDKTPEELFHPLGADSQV

Molecular target: T1, CMTM6-HA (UniProt Q9NX76)
T1 sequence: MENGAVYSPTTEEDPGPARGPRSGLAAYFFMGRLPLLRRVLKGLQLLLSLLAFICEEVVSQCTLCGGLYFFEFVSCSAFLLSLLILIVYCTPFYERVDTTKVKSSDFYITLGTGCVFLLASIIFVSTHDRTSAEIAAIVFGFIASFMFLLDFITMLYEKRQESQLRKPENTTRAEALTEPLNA
Test: co-IP; HCT116 cells coexpressing CMTM6-HA and Rab11-FLAG; lysis buffer with 0.5% NP-40; anti-HA (12CA5) antibody and Protein G Sepharose beads pull down CMTM6-HA; WB for Glut1 and Rab11-FLAG

Substance: Glucose transporter 1 (Glut1), endogenous in HCT116 cells (from UniProt P11166 1-492)
- binding: binds
